Results reported in the supplement of paper PMC10849652.
This is one part of the list.

By UniProt entry, the sequences of proteins in these tests, tags left out. Where a name states a change or a piece, a line headed by the entry shows the natural chain unless it says otherwise.
UniProt O94967: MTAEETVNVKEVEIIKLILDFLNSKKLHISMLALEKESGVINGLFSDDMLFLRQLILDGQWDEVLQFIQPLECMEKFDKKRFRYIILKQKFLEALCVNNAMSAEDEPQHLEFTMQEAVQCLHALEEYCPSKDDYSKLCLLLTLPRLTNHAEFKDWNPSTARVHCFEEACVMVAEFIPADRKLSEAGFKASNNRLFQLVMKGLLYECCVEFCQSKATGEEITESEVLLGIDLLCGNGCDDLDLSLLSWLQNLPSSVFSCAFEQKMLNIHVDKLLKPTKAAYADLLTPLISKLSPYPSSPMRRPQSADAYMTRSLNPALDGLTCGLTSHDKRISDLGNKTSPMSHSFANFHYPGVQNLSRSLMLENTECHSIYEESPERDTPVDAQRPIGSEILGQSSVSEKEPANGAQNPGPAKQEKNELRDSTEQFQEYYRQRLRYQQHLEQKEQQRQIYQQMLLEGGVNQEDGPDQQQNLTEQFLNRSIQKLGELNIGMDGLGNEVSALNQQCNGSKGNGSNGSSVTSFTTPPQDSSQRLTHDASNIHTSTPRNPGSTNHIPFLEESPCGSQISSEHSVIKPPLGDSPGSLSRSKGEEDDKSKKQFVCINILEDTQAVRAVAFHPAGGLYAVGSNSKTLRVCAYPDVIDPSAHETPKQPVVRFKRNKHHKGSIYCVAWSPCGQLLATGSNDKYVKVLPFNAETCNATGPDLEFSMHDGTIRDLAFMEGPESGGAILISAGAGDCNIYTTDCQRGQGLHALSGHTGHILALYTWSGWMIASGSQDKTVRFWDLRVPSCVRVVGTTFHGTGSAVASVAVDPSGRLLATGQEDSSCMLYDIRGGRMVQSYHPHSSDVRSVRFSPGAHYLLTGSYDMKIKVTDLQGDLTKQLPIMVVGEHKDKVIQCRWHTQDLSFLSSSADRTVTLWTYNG
UniProt Q7Z5U6: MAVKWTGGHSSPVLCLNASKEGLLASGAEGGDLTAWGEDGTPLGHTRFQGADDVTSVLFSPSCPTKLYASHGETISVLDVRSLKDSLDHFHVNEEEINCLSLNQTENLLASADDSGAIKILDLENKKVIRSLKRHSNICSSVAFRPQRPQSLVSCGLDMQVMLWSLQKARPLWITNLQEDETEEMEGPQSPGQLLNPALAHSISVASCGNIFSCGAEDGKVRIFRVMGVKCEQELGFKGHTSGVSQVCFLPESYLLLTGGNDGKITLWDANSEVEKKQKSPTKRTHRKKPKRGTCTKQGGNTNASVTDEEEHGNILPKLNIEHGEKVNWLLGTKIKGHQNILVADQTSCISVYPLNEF
UniProt Q12768: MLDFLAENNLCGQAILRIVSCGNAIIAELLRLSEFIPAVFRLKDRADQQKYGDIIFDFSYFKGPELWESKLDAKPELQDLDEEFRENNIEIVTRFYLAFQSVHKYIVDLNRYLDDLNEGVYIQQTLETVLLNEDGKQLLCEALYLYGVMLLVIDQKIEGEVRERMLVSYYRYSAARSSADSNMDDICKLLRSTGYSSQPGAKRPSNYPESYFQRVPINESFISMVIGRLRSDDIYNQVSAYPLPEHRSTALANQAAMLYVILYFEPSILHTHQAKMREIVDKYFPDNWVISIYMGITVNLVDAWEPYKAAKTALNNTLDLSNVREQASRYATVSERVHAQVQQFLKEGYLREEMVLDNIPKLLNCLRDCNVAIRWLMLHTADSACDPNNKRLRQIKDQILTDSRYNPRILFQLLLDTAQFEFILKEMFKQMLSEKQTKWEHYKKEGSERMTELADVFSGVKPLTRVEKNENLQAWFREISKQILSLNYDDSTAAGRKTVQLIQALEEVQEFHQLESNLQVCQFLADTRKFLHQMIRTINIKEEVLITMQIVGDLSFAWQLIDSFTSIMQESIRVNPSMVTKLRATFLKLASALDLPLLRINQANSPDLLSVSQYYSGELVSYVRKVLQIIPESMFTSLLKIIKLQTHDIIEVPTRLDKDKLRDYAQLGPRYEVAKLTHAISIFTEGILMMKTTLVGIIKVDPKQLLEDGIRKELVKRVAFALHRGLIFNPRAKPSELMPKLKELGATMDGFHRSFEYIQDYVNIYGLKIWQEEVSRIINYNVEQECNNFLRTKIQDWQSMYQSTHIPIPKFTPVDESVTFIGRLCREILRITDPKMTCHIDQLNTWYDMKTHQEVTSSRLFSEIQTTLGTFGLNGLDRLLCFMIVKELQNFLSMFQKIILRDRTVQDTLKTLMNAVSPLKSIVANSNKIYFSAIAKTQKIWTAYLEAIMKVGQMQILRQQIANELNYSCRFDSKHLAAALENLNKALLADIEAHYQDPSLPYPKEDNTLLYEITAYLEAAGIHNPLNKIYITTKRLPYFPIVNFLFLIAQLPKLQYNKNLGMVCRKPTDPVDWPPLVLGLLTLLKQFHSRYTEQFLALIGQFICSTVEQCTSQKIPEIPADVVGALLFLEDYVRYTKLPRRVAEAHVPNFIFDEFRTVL
UniProt Q69YN4: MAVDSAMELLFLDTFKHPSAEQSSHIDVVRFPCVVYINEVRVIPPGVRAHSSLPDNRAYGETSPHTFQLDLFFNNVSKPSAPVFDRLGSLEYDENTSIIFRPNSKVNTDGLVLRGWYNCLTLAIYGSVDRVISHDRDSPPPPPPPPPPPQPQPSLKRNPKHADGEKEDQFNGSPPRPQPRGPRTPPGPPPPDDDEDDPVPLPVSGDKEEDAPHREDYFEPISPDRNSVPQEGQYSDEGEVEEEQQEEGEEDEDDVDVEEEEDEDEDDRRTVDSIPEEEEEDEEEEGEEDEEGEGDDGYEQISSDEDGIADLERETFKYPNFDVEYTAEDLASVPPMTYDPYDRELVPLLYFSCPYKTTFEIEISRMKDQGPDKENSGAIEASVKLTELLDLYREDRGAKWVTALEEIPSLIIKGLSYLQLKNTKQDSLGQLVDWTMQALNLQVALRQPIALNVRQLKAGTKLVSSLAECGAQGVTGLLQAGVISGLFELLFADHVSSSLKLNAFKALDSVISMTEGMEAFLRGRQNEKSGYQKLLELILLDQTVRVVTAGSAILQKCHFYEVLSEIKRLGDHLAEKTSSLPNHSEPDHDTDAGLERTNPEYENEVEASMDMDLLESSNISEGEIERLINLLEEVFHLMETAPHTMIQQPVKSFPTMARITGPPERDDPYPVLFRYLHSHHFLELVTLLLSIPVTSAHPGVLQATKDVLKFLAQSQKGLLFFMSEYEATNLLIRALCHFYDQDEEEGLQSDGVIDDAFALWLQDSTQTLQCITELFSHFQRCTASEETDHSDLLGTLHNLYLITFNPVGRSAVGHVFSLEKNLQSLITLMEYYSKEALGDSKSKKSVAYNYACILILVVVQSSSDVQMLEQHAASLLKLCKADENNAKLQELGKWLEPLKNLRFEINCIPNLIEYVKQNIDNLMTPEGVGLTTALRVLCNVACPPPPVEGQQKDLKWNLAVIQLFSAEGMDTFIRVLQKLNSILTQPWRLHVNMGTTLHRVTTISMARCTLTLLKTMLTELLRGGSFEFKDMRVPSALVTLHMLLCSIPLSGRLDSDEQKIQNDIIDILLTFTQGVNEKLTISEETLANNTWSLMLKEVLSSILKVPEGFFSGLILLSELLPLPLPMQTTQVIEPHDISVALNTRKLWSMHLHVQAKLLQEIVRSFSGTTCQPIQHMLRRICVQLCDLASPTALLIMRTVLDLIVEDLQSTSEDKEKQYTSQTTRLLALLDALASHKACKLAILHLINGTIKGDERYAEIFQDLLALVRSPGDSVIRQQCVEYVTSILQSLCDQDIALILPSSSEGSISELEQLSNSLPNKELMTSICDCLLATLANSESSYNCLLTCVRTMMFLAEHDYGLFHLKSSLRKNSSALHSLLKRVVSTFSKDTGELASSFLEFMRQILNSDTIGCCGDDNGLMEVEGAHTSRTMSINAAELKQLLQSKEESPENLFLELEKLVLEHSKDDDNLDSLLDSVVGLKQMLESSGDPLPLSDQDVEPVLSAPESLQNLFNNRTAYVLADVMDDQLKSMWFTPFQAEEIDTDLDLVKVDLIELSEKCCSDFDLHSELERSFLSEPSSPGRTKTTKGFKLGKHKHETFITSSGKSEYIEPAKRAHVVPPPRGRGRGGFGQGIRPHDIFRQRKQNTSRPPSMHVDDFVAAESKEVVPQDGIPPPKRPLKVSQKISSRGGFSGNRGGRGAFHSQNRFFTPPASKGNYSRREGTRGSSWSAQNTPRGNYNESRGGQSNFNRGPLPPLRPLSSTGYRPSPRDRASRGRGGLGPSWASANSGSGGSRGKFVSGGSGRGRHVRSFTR
UniProt Q96JC1: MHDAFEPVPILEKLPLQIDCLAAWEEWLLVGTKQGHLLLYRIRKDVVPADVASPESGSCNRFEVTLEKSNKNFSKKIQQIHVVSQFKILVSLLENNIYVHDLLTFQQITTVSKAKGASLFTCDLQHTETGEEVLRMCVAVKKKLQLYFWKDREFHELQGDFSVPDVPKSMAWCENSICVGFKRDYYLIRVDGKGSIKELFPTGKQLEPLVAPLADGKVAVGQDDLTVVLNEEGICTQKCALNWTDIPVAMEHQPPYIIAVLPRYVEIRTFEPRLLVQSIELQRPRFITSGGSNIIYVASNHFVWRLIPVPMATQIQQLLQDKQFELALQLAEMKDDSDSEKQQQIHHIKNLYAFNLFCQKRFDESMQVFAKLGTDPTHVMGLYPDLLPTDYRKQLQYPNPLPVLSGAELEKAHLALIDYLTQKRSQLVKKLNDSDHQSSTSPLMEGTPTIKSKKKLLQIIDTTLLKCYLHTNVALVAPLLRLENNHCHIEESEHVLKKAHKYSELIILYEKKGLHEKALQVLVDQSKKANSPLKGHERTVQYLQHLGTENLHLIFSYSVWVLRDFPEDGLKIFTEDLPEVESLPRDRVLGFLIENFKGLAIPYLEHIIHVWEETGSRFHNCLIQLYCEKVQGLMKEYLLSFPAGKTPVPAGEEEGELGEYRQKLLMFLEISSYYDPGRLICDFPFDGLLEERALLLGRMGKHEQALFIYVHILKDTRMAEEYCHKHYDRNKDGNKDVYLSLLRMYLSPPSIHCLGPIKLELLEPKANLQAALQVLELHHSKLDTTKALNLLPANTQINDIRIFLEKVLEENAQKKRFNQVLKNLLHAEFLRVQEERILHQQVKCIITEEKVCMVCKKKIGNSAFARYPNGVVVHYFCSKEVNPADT
UniProt Q9HAD4: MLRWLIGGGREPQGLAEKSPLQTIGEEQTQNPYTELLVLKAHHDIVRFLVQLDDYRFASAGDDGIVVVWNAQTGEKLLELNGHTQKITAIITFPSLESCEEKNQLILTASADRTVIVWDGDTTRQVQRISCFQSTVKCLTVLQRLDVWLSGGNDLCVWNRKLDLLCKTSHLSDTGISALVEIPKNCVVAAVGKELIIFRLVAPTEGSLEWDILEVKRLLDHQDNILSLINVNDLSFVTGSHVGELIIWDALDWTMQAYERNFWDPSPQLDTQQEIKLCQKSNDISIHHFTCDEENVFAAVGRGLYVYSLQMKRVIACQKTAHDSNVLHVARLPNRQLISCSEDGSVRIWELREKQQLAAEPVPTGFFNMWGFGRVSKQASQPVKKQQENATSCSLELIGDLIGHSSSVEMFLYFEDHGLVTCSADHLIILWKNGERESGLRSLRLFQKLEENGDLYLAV
UniProt Q96JG6: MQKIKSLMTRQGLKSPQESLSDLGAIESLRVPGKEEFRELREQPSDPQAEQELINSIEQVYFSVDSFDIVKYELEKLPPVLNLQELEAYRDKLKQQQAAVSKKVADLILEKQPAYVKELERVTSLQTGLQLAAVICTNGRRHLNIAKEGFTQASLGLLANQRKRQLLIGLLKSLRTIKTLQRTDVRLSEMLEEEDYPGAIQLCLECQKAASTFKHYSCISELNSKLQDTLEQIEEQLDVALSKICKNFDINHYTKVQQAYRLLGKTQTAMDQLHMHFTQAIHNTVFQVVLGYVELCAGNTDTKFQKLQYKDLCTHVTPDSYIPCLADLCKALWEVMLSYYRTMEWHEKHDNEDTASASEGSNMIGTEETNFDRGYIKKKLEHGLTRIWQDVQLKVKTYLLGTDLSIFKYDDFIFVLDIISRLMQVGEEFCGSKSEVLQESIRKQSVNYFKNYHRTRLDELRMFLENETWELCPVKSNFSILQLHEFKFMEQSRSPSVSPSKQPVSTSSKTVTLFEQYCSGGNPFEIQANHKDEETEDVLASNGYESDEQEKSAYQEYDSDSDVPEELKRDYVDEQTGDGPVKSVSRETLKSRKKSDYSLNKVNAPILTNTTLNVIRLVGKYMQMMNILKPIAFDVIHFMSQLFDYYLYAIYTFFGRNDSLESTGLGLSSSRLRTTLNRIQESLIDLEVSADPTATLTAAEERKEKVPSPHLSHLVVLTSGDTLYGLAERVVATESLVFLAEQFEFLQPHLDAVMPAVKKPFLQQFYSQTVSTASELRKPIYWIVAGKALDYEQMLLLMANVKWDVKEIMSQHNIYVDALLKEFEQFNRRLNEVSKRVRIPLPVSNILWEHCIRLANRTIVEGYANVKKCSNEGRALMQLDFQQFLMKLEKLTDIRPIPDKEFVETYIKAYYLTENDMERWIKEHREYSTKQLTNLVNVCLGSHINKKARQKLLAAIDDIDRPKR

Legend:
Assay in all cases: log2 fold change, soluble protein after heating vs DMSO (PISA); higher = thermal stabilisation; K562 cells, 10 uM, 30 min; active = over 0.2 and 3.5 SD of the protein, either way, in both replicates (recomputed)
[1] = compound: CC[C@@H]1C(=O)N(C)c2cnc(Nc3ccc(C(=O)NC4CCN(C)CC4)cc3OC)nc2N1C1CCCC1
Outline: (§1)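 Soluble protein was quantified by TMTpro 16plex LC-MS/MS after channel sums were equalised. It was obtained as the supernatant after 21,000xg for 90 min from pooled aliquots of K562 cells (2×10^6 cells/mL, 10 μM compound, 30 min) heated for 3 min across 48°C-58°C and extracted in PBS with 0.5% NP-40 at 4°C. Thermal stability values are relative to control samples and come from duplicates. They are given as log2 fold changes.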

[2] = compound: CC[C@@H]1C(=O)N(C)c2cnc(Nc3ccc(C(=O)N[C@H]4CC[C@H](N5CCN(CC6CC6)CC5)CC4)cc3OC)nc2N1C(C)C [volasertib]
Outline: as §1

[3] = compound: CC[C@H](C)N1C=C(C2=C(C=C(C=C21)C3=CN=C(C=C3)N4CCNCC4)C(=O)NCC5=C(C=C(NC5=O)C)C)C
Outline: as §1

[4] = compound: CC[C@H](C)[C@@H](C(=O)N[C@@H]([C@@H](C)O)C(=O)N[C@@H](CC(C)C)C(=O)[C@]1(CO1)C)NC(=O)[C@H]([C@@H](C)CC)N(C)C(=O)C [epoxomicin]
Outline: as §1

[5] = compound: CCn1cc(-c2ccnc3[nH]c(-c4cccc(CN(C)C)c4)cc23)c(-c2ccc(NC(=O)N(C)C)cc2)n1
Outline: as §1

[6] = compound: CN(C)CC(=O)Nc1ccc2[nH]c(=O)c3ccccc3c2c1
Outline: as §1

[7] = compound: CN1C2=C(C3=C1C(=O)N(N=C3)CC4=CC(=CC=C4)N)SC(=C2)S(=O)C
Outline: as §1

[8] = compound: CN1CCC(CNc2ccc3ncc(-c4cccc(OC(F)(F)F)c4)n3n2)CC1
Outline: as §1

[9] = compound: CN1CCN(CCOc2cc(OC3CCOCC3)c3c(Nc4c(Cl)ccc5c4OCO5)ncnc3c2)CC1 [saracatinib]
Outline: as §1

[10] = compound: CN1CCN(c2nc(C3=C(c4c[nH]c5ccccc45)C(=O)NC3=O)c3ccccc3n2)CC1 [sotrastaurin]
Outline: as §1

[11] = compound: CN1CCc2c(c3ccccc3n2Cc2ccc(C(=O)NO)cc2)C1 [Tubastatin A]
Outline: as §1

[12] = compound: CNC(=O)C1=CC=CC=C1NC2=NC(=NC=C2Cl)NC3=C(C=C(C=C3)N4CCOCC4)OC
Outline: as §1

[13] = compound: CNC(=O)c1ccc(Nc2ncc(C(F)(F)F)c(NCc3nccnc3N(C)S(C)(=O)=O)n2)cc1 [defactinib]
Outline: as §1

[14] = compound: CNCc1ccc(-c2[nH]c3cc(F)cc4c3c2CCNC4=O)cc1 [rucaparib]
Outline: as §1

[15] = compound: CNc1nc(-c2ccc3c(N)n[nH]c3c2)cc(N2C[C@@H](C(=O)NC3CCCCC3)CC[C@H]2C)n1
Outline: as §1

[16] = compound: COC(=O)N[C@@H](C)CNc1nccc(-c2cn(C(C)C)nc2-c2cc(Cl)cc(NS(C)(=O)=O)c2F)n1 [encorafenib]
Outline: as §1

[17] = compound: COC(=O)[C@H](CCSC)NC(=O)C1=C(C=C(C=C1)NC[C@H](CS)N)C2=CC=CC=C2
Outline: as §1

[18] = compound: CN(CCOC1=CC=C(C=C1)C[C@H]2C(=O)NC(=O)S2)C3=CC=CC=N3 (racemic) [rosiglitazone]
Outline: as §1

[19] = compound: CN1CC[C@H](c2c(O)cc(O)c3c(=O)cc(-c4ccccc4Cl)oc23)[C@H](O)C1 [alvocidib]
Outline: as §1

[20] = compound: CCn1c(C(=O)N(C2CC2)C2CC2)cc2c3c(ncn3C)c(Nc3cc(C)n(C)n3)nc21
Outline: as §1

Measured: log2 fold change

WDR47 (UniProt O94967)
inactive: [1] 0.011 | [2] -0.112 | [3] -0.02 | [4] -0.037 | [5] -0.055 | [6] -0.012 | [7] 0.029 | [8] 0.234 | [9] -0.019 | [10] -0.008 | [11] 0.039 | [12] 0.035 | [13] 0.052 | [14] -0.071 | [15] -0.041 | [16] 0.045 | [17] -0.087

WDR19 (UniProt Q8NEZ3)
inactive: [1] -0.004 | [2] 0.24 | [6] -0.117 | [18] 0.004 | [7] -0.097 | [9] 0.033 | [19] 0.001 | [11] 0.177 | [13] 0.035 | [14] 0.079 | [15] -0.074 | [16] -0.026 | [17] 0.274

WDR53 (UniProt Q7Z5U6)
inactive: [1] -0.021 | [2] -0.008 | [20] 0.015 | [5] 0.015 | [6] -0.148 | [18] -0.02 | [7] 0.068 | [8] 0.037 | [9] 0.023 | [10] -0.177 | [19] 0.06 | [11] 0.01 | [12] -0.055 | [13] 0.012 | [14] 0.016 | [15] -0.056 | [16] -0.044 | [17] -0.085

WASHC5 (UniProt Q12768)
inactive: [1] -0.109 | [2] -0.268 | [3] 0.09 | [4] 0.049 | [5] 0.035 | [6] 0.045 | [7] -0.006 | [8] -0.114 | [9] 0.007 | [10] -0.02 | [11] 0.047 | [12] 0.062 | [13] -0.032 | [14] 0.045 | [15] -0.009 | [16] 0.033 | [17] -0.033

WDR37 isoform 2 (UniProt Q9Y2I8)
inactive: [1] 0.078 | [2] -0.022 | [3] -0.005 | [4] -0.049 | [5] -0.049 | [6] -0.004 | [7] 0.246 | [8] -0.005 | [9] -0.094 | [10] -0.01 | [11] -0.019 | [12] -0.077 | [13] 0 | [14] 0.064 | [15] -0.108 | [16] 0.084 | [17] -0.007

VPS33A (UniProt Q96AX1)
inactive: [1] -0.224 | [3] 0.043 | [4] 0.039 | [5] -0.004 | [6] 0.059 | [7] 0.035 | [8] -0.208 | [9] -0.036 | [10] -0.174 | [11] 0.033 | [12] -0.043 | [13] -0.06 | [14] 0.045 | [15] -0.013 | [16] -0.003 | [17] -0.025
active: [2] -0.359

VIRMA (UniProt Q69YN4)
inactive: [1] 0.091 | [3] 0.042 | [4] -0.142 | [20] -0.147 | [5] 0.176 | [18] 0.127 | [8] -0.075 | [19] -0.09 | [12] 0.037 | [14] -0.045 | [16] -0.049

VPS39 (UniProt Q96JC1)
active: [2] -0.354
inactive: [1] -0.206 | [3] 0.054 | [4] -0.017 | [5] -0.091 | [6] 0.022 | [7] 0.008 | [8] -0.187 | [9] 0 | [10] -0.097 | [11] 0.033 | [12] -0.015 | [13] -0.068 | [14] 0.039 | [15] 0.005 | [16] -0.006 | [17] -0.03

WIPF1 isoform 3 (UniProt O43516)
inactive: [1] -0.001 | [2] 0.124 | [3] 0.025 | [20] 0.097 | [5] -0.024 | [6] -0.162 | [18] -0.073 | [7] 0.178 | [8] -0.096 | [9] 0.234 | [10] 0.206 | [19] 0.118 | [11] 0.351 | [12] -0.083 | [13] -0.033 | [14] -0.072 | [15] -0.136 | [16] -0.075 | [17] 0.141

WDR41 (UniProt Q9HAD4)
active: [2] -0.282
inactive: [1] -0.169 | [3] -0.056 | [4] 0.061 | [5] -0.043 | [6] 0.012 | [7] -0.076 | [8] -0.115 | [9] 0.071 | [10] -0.037 | [11] -0.054 | [12] -0.046 | [13] -0.007 | [14] 0.015 | [15] -0.031 | [16] 0.008 | [17] 0.036

2 neighbouring records out of the list so far:
VIRMA (UniProt Q69YN4)
inactive: [1] 0.091 | [3] 0.042 | [4] -0.142 | [20] -0.147 | [5] 0.176 | [18] 0.127 | [8] -0.075 | [19] -0.09 | [12] 0.037 | [14] -0.045 | [16] -0.049

VPS39 (UniProt Q96JC1)
active: [2] -0.354
inactive: [1] -0.206 | [3] 0.054 | [4] -0.017 | [5] -0.091 | [6] 0.022 | [7] 0.008 | [8] -0.187 | [9] 0 | [10] -0.097 | [11] 0.033 | [12] -0.015 | [13] -0.068 | [14] 0.039 | [15] 0.005 | [16] -0.006 | [17] -0.03

The results go on:

VPS50 (UniProt Q96JG6)
active: [2] -0.415
inactive: [1] -0.168 | [3] 0.08 | [4] 0.009 | [5] -0.026 | [6] 0.009 | [7] 0.036 | [8] -0.101 | [9] -0.108 | [10] -0.089 | [11] 0.036 | [12] 0.04 | [13] -0.11 | [14] 0.033 | [15] -0.012 | [16] 0.1 | [17] -0.022

VSIR (UniProt Q9H7M9)
inactive: [1] 0.107 | [3] -0.039 | [4] 0.03 | [20] 0.01 | [5] 0.036 | [6] -0.017 | [18] -0.056 | [8] 0.169 | [10] 0.001 | [19] -0.051 | [12] 0.038 | [13] 0.042 | [14] -0.12 | [16] -0.092 | [17] 0.037

WDR46, A0A0G2JJL1
inactive: [1] 0.388 | [2] 0.37 | [3] -0.068 | [4] -0.451 | [6] -0.183 | [7] 0.215 | [9] 0.065 | [10] 0.052 | [11] -0.095 | [12] 0.007 | [13] 0.408 | [14] 0.293 | [15] 0.119 | [16] 0.044 | [17] -0.138
